In patent publication US20050130265A1 one finds binding data, which are given here for two molecules.

Assay [1] deals with Aio-500 bait (C-terminal 149 amino acids of Aiolos fused in frame to the LexA DNA binding domain in pLex202) (mouse). The assay is described as follows: yeast two-hybrid.
The target is the same in assay [2]. The assay is described as follows: yeast two-hybrid, B42 prey against LexA bait, rate of blue colour on X-gal plates.

No constants are given. Whether binding was seen depends on the method and setting. Some entries that bind do so weakly or less than the wild type. Sequences can lack the tags named with a protein.

B1: Aio-800 prey (B42 transcriptional activation domain fused to the entire coding sequence of the C-terminal exon of Aiolos) (protein, not shown: large carriers)
chain: EKRHCFDANYNPGYMYEKENEMMQTRMMDQAINNAISYLGAEAFRPLVQTPPAPTSEMVPVISSVYPIALTRADMPMGAPQEMEKKRILLPEKILPSERGLSPNNSAQDSTDTDSNHEDRQHLYQQSHVVLPQARNGMPLLKEVPRSFELLKPPPICLRDSIKVINKEGEVMDVFRCDHCHVLFLDYVMFTIHMGCHGFRDPFECNMCGYRSHDRYEFSSHIARGEHRAMLK
As to B1, the binding entry in assay [1] and in assay [2] was “binds” each time.

B2: Aio-500 prey (B42 transcriptional activation domain fused to the C-terminal 149 amino acids of Aiolos) (protein, not shown: large carriers)
chain: EKKRILLPEKILPSERGLSPNNSAQDSTDTDSNHEDRQHLYQQSHVVLPQARNGMPLLKEVPRSFELLKPPPICLRDSIKVINKEGEVMDVFRCDHCHVLFLDYVMFTIHMGCHGFRDPFECNMCGYRSHDRYEFSSHIARGEHRAMLK
Consider B2, for which the binding result in assay [1] and in assay [2] was “binds” each time.
